# Data as given in PubChem BioAssay AID1259275 (Sanger Institute, 2017)
# Test: 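Kinase and colorectal cancer genes needed for cancer cell survival, with or without drugs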 (primary screen)
# Cells: COLO320HSR human colorectal cancer cells
# Reagent: siRNA pool against human genes
# Treatment: anchor drug added one day after transfection: BYL719 at 1 µM, cetuximab at 5 µg/ml or trametinib at 10 nM; DMSO as vehicle arm
# Read-out: 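Viability averaged over replicates as a fraction of the non-targeting pool, a robust z-score for knock-down alone, and synergy scores with BYL719 (1 µM), cetuximab (5 µg/ml) or trametinib (10 nM)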
# Direction: robust z-score, siRNA alone: higher = more viable cells; strongly negative means essential
# Rule for the call: 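a gene is called essential when its robust z-score without drug falls below -3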
# Calls: active = essential (siRNA alone); inactive = no change (siRNA alone)
# Shown is a random part of 794 reagents. In the full data, 13 (1.6%) were called active. 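Calls mark knock-downs lethal by themselves, not drug synergy; drugs went in a day after transfection, with DMSO as vehicle.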 Not all columns of the deposit are shown. Not given: the amount of reagent, the time to read-out.
Gene,"robust z-score, siRNA alone",activity call
PI4KB,0.726,inactive
CEP290,0.726,inactive
MAP3K6,-0.735,inactive
CAD,0.625,inactive
ARID1A,0.726,inactive
DGKI,0.726,inactive
EPHA10,-1.31,inactive
GTF2H1,0.726,inactive
ITK,0.422,inactive
SOX9,0.363,inactive
FASTK,-1.39,inactive
MAP3K19,-1.28,inactive
FXN,0.628,inactive
PDGFRA,-1.47,inactive
CNOT1,-0.964,inactive
PKDCC,0.423,inactive
PFKFB2,-0.309,inactive
CDK15,0.726,inactive
SNRK,-0.23,inactive
ADCK5,0.726,inactive
LRRK2,0.649,inactive
BCKDK,0.339,inactive
RUNX1,-3.14,active
MKNK1,0.0147,inactive
NTRK2,-0.0434,inactive
MAP3K8,0.726,inactive
IRAK3,-1.46,inactive
N4BP2,0.726,inactive
CALM3,-0.617,inactive
SYNCRIP,-0.999,inactive
CDKN2B,0.0194,inactive
NTRK3,0.726,inactive
ERBB4,0.726,inactive
PBK,-1.3,inactive
CDK7,0.726,inactive
VRK3,0.726,inactive
PRKAR1B,-0.562,inactive
EPHB1,0.255,inactive
STK32A,-0.19,inactive
SGK1,-0.0138,inactive
AURKB,-0.889,inactive
PIP5KL1,0.342,inactive
CDKN2D,-0.445,inactive
ABL1,-0.318,inactive
TRPM7,-0.244,inactive
DGKQ,-1.54,inactive
PGK2,0.0651,inactive
DMPK,-1.53,inactive
MAPK12,0.726,inactive
POLR2B,-3.76,active

As entered above:
PKDCC, robust z-score, siRNA alone: 0.423
ARID1A, robust z-score, siRNA alone → 0.726
STK32A, robust z-score, siRNA alone → -0.19
Under “robust z-score, siRNA alone”, CALM3 is entered as -0.617
PIP5KL1, robust z-score, siRNA alone = 0.342
